Laboratory results reported in the supplement of paper PMC11732987, “Enantioselective OTUD7B fragment discovery through chemoproteomics screening and high-throughput optimisation” (Communications Chemistry, 2025).
This is one part of the list. The data scatter; read single values as rough.

Sequences of proteins named here, by UniProt entry; tags and fusion partners are left off. A change or cut given only in a name is not applied to a line headed by its entry. Residues count along the entry.
UniProt Q96AE4: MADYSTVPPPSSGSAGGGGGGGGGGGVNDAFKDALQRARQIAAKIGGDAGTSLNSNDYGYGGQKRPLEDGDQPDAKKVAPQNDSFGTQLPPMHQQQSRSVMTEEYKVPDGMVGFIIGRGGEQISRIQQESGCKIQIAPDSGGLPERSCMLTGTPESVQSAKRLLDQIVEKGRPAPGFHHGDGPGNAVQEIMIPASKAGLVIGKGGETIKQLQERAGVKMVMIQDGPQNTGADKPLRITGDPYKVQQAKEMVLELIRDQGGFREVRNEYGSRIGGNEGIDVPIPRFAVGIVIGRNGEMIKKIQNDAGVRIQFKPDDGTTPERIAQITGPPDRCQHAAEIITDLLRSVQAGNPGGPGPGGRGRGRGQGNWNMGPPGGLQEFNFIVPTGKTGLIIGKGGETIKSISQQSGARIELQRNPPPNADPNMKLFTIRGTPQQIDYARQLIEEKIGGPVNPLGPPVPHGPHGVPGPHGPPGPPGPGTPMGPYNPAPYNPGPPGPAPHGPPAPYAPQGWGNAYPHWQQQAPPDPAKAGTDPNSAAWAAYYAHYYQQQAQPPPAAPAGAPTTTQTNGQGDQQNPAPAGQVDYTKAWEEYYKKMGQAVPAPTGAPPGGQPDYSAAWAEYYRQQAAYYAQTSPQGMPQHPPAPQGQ
UniProt P04406: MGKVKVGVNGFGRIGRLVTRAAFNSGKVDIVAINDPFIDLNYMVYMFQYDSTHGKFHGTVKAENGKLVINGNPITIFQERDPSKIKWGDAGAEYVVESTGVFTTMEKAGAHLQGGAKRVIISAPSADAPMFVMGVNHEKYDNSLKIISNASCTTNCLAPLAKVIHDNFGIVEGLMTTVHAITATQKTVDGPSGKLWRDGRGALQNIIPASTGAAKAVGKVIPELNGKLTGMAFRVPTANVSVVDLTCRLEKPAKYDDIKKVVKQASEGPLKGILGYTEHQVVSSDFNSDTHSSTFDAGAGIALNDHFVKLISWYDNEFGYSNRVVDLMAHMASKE
UniProt Q6PCT2: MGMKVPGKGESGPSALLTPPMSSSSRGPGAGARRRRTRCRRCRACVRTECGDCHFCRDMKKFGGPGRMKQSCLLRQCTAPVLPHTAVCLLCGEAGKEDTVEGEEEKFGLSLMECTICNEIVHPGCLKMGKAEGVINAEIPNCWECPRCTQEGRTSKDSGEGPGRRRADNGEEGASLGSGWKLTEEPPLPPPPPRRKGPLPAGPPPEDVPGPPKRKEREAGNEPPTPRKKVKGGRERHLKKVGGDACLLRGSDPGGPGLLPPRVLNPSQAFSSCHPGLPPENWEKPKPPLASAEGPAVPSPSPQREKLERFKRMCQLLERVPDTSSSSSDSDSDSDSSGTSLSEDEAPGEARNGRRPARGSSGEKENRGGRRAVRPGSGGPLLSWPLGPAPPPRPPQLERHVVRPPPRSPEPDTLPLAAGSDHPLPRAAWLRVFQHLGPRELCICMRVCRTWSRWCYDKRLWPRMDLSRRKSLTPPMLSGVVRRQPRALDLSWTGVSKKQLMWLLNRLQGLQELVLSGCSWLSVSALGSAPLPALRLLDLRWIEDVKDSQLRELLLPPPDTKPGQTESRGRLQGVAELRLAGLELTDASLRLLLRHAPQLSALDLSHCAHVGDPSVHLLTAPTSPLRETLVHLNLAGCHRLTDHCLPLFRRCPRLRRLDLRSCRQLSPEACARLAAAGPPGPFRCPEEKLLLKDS
UniProt P22830: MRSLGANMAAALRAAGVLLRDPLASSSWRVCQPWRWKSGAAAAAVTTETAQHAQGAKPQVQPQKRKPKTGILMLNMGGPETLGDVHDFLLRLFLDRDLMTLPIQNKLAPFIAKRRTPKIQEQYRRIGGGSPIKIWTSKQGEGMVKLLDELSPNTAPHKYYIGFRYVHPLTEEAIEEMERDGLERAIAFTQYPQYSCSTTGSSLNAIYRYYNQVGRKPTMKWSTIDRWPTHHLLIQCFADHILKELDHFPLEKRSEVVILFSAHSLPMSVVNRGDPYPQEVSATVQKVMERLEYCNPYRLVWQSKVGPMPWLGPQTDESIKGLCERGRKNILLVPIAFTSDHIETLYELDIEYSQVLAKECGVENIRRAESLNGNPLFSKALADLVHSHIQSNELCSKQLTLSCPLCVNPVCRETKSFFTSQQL
UniProt Q53EP0: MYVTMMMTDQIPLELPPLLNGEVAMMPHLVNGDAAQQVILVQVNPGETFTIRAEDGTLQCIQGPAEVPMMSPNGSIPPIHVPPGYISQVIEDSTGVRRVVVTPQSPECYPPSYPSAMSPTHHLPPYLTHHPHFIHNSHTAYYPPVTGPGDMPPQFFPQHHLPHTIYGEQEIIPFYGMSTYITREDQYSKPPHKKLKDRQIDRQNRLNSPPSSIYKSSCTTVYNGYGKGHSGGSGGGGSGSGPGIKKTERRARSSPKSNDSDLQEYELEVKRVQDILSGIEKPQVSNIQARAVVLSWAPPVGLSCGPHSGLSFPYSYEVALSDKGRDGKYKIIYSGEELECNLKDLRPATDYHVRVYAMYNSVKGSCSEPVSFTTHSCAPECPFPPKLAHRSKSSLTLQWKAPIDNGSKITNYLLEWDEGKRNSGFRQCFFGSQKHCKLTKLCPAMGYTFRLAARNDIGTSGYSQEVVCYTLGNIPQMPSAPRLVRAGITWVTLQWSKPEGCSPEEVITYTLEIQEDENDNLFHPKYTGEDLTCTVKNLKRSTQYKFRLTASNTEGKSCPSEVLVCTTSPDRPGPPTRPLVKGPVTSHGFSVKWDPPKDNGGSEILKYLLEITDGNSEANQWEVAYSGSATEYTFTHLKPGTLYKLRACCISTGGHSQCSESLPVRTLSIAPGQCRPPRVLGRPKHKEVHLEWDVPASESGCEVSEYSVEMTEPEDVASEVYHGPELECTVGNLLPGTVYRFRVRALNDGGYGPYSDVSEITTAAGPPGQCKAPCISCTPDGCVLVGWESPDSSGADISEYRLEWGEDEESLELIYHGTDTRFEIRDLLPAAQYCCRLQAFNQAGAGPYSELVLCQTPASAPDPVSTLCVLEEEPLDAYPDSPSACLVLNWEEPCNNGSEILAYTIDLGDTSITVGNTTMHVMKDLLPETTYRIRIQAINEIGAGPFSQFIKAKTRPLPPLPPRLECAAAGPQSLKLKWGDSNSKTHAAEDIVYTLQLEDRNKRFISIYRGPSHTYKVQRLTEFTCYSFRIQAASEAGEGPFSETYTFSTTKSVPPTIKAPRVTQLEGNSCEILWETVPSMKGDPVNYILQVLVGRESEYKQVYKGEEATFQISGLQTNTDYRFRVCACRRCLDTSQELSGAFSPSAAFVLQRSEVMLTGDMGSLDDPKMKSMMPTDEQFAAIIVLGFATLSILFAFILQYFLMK
UniProt Q13451: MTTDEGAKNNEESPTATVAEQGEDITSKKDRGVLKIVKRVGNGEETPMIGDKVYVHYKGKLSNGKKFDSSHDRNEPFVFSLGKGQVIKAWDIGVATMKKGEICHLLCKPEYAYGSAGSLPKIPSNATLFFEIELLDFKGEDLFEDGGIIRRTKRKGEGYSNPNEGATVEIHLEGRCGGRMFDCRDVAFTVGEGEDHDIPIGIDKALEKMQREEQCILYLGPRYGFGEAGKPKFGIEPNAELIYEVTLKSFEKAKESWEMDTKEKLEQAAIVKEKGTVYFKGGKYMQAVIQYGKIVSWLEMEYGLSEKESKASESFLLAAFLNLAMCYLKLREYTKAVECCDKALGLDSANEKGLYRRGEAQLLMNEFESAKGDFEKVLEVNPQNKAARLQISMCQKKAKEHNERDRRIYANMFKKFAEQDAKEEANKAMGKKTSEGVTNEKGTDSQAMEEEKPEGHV
UniProt Q9NYY8: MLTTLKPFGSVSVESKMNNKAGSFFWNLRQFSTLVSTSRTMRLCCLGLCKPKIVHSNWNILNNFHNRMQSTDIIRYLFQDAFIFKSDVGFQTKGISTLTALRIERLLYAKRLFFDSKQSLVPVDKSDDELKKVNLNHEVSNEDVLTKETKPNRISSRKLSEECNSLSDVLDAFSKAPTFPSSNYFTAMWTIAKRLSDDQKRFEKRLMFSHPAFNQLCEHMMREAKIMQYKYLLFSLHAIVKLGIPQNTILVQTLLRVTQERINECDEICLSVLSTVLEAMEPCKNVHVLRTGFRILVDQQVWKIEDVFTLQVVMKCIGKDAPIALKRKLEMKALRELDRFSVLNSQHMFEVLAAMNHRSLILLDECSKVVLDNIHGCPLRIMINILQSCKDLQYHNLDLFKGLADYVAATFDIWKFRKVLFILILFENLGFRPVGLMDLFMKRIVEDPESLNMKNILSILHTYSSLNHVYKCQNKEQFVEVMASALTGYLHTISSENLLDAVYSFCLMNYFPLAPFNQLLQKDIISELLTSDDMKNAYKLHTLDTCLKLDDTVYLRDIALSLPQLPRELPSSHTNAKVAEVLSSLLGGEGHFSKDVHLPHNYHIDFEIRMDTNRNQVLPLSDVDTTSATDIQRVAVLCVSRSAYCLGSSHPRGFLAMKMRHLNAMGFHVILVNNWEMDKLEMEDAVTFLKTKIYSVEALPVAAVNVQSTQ
UniProt Q96AC1: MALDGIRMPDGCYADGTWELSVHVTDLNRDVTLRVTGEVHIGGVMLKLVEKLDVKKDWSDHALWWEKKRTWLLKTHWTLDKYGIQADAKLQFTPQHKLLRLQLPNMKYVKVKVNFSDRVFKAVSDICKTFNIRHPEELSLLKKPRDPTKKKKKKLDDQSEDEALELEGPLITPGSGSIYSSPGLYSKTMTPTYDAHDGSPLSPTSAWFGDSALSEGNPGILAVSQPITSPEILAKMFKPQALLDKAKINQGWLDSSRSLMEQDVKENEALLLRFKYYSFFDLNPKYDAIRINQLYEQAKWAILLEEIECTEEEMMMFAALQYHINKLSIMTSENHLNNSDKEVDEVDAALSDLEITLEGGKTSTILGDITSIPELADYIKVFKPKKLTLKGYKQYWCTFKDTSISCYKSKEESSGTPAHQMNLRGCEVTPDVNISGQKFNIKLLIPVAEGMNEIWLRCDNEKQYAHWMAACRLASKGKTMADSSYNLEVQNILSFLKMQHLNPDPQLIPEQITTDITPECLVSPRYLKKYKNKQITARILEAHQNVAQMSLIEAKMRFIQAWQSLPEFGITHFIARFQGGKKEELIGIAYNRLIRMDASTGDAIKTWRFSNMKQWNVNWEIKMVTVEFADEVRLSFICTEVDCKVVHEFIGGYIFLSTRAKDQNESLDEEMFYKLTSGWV
UniProt Q8NB37, 175-194: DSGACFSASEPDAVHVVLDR
UniProt O14976: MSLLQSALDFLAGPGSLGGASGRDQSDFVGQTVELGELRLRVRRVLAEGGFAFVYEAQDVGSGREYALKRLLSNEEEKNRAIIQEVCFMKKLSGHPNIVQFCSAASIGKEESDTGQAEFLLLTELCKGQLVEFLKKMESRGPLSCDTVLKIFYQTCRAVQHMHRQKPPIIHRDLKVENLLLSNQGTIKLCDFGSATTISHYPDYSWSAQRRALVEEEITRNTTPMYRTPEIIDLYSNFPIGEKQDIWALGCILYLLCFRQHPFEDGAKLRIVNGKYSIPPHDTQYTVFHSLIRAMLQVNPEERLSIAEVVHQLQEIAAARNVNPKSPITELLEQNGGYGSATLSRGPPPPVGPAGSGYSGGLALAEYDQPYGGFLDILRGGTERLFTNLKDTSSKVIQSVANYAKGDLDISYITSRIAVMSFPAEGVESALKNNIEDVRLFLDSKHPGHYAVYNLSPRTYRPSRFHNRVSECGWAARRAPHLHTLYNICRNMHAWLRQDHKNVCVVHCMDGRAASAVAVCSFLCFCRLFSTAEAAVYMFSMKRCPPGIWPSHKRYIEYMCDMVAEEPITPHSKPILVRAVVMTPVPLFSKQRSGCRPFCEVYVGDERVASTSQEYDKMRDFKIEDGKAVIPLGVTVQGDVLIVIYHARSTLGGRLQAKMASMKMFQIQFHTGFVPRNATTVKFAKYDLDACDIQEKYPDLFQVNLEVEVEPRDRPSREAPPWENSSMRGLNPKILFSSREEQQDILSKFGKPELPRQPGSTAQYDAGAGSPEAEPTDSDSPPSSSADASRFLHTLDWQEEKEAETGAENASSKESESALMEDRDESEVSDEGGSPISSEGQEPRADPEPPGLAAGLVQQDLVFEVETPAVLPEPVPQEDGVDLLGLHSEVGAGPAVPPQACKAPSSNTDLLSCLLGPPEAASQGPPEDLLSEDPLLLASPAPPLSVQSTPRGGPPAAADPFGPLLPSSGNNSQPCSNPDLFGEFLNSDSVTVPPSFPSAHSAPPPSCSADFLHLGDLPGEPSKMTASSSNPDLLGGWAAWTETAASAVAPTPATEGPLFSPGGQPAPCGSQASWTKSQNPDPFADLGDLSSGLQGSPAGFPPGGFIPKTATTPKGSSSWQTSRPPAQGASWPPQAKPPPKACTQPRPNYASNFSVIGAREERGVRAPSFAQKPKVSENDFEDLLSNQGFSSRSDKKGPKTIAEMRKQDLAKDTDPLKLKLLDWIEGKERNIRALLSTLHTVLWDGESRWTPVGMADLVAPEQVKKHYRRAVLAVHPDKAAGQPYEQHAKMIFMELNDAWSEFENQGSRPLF

How the values were obtained:
[1] = compound: ClCC(=O)N[C@@H]1CCCc2ccccc12; assay: log2 mean competition ratio of IA-DTB cysteine labelling (DMSO/compound) (log2 ratio); higher = stronger cysteine engagement by compound; conditions: treatment time: 4 h, cell line lysate: HEK293T
Method: (§1)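 IA-DTB competitive cysteine chemoproteomics in HEK293T RIPA lysate. Lysates were treated with compound 29 or 30 at 50 or 200 µM for 4 h, then IA-DTB (500 µM, 1 h), trypsin-digested, NeutrAvidin-enriched and analysed by diaPASEF. Competition ratio = intensity DMSO / intensity compound (n=4 treated, n=64 DMSO); binding: mean log2 CR ≥ 1 and p ≤ 0.05 plus QC filters. Target is the cysteine site.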

[2] = compound: ClCC(=O)N[C@H]1CCCc2ccccc12; assay: as above; conditions: treatment time: 4 h, cell line lysate: HEK293T
Method: as §1

Target | log2 mean competition ratio ([1]; 50 µM) | log2 mean competition ratio ([1]; 200 µM) | log2 mean competition ratio ([2]; 50 µM) | log2 mean competition ratio ([2]; 200 µM)
FUBP1 C148 (UniProt Q96AE4) | 0.17 | -0.187 | 0.117 | -0.153
FBXL20 C135 (UniProt Q96IG2) | 0.103 | 0.196 | -0.0623 | 0.189
FLNA C1453 | -0.289 | -0.0225 | -0.13 | -0.00808
FASN C135 | -0.21 | -0.0302 | -0.375 | -0.0752
FASN C630 | 0.318 | 0.237 | 0.81 | 0.97
FCHSD1 C88 (UniProt Q86WN1) | -0.427 | 0.103 | -0.355 | 0.174
FTO C171 (UniProt Q9C0B1) | -0.117 | -0.184 | 0.203 | 0.0158
FBXO38 C791 (UniProt Q6PIJ6) | -0.137 | -0.0164 | 0.033 | 0.181
FRYL C288 (UniProt O94915) | 0.0829 | 0.0401 | 0.504 | 0.218
GART C41 | -0.262 | -0.0708 | -0.178 | -0.0479
GAPDH C247 (UniProt P04406) | -0.244 | 0.0255 | -0.442 | -0.341
FBXL20 C116 (UniProt Q96IG2) | -0.076 | 0.189 | -0.0124 | 0.157
FLNA C2582 | -0.221 | -0.106 | 0.165 | 0.0376
FOXM1 C160 | -0.526 | 0.172 | 0.0537 | 0.0442
GART C506 | -0.092 | -0.062 | 0.127 | -0.0763
GART C941 | -0.181 | 0.624 | 0.576 | 0.315
FSCN1 C80 (UniProt Q16658) | -0.14 | 0.0884 | -0.335 | 0.101
FBXL19 C246 (UniProt Q6PCT2) | 0.0783 | 0.271 | -0.0248 | 0.282
FYCO1 C848 (UniProt Q9BQS8) | -0.173 | 0.888 | -0.362 | 0.417
FGD1 C926 | 0.0709 | -0.0495 | 0.0428 | 0.0841
FRYL C2803 (UniProt O94915) | -0.539 | -0.186 | -0.384 | 0.11
FECH C395 (UniProt P22830) | 0.143 | 0.355 | -0.158 | 0.0787

Target | log2 mean competition ratio ([1]; 50 µM) | log2 mean competition ratio ([1]; 200 µM) | log2 mean competition ratio ([2]; 50 µM) | log2 mean competition ratio ([2]; 200 µM)
FBXL15 C244 (UniProt Q9H469) | 0.0396 | 0.167 | 0.0241 | 0.386
FHIP1A C270 | 0.094 | 0.484 | -0.0347 | 0.511
FNDC3B C218 (UniProt Q53EP0) | -0.361 | -0.111 | -0.75 | 0.0149
FARP2 C196 | -0.00216 | 0.207 | 0.129 | 0.156
FLII C1067 (UniProt Q13045) | -0.103 | 0.0871 | 0.122 | 0.0599
FKBP5 C215 (UniProt Q13451) | -0.0507 | -0.304 | -0.453 | -0.282
FRMD8 C191 (UniProt Q9BZ67) | -0.169 | 0.21 | -0.203 | 0.104
FER C785 (UniProt P16591) | 0.0382 | 0.185 | -0.125 | 0.314
FASTKD2 C366 (UniProt Q9NYY8) | -0.16 | -0.151 | 0.265 | 0.0173
FLNB C2537 (UniProt O75369) | -0.145 | 0.181 | -0.0855 | 0.271
FERMT2 C426 (UniProt Q96AC1) | -0.146 | -0.121 | 0.0754 | -0.114
FXR2 C270 (UniProt P51116) | 0.514 | 0.325 | -0.118 | 0.0314
FYCO1 C882 (UniProt Q9BQS8) | -0.191 | -0.0321 | -0.721 | -0.234
GATD1 C179 (UniProt Q8NB37) | -0.212 | -0.199 | -0.296 | -0.304
GATAD1 C179 | -0.106 | -0.187 | -0.156 | -0.0435
FASTKD5 C708 (UniProt Q7L8L6) | 0.28 | -0.251 | 0.58 | 0.0859
FKBP8 C227 (UniProt Q14318) | 0.218 | -0.00779 | 0.149 | 0.062
FMNL3 C623 (UniProt Q8IVF7) | 0.0515 | 0.153 | -0.412 | 0.157
FER C344 (UniProt P16591) | 0.0169 | -0.052 | -0.157 | -0.174
GAK C145 (UniProt O14976) | 0.103 | 0.0725 | 0.431 | 0.167
FAT4 C4166 (UniProt Q6V0I7) | -0.158 | 0.0687 | -0.349 | 0.0224

Single records, from the list above. Values in the order: log2 mean competition ratio ([1]; 50 µM)	log2 mean competition ratio ([1]; 200 µM)	log2 mean competition ratio ([2]; 50 µM)	log2 mean competition ratio ([2]; 200 µM)
FMNL3 C623 (UniProt Q8IVF7) as listed: 0.0515	0.153	-0.412	0.157
FBXL15 C244 (UniProt Q9H469) as listed: 0.0396	0.167	0.0241	0.386
